Primary screen of a compound library

The chains behind the UniProt entries cited, without tags or fusion partners.
UniProt E9BF75, entry or part of it: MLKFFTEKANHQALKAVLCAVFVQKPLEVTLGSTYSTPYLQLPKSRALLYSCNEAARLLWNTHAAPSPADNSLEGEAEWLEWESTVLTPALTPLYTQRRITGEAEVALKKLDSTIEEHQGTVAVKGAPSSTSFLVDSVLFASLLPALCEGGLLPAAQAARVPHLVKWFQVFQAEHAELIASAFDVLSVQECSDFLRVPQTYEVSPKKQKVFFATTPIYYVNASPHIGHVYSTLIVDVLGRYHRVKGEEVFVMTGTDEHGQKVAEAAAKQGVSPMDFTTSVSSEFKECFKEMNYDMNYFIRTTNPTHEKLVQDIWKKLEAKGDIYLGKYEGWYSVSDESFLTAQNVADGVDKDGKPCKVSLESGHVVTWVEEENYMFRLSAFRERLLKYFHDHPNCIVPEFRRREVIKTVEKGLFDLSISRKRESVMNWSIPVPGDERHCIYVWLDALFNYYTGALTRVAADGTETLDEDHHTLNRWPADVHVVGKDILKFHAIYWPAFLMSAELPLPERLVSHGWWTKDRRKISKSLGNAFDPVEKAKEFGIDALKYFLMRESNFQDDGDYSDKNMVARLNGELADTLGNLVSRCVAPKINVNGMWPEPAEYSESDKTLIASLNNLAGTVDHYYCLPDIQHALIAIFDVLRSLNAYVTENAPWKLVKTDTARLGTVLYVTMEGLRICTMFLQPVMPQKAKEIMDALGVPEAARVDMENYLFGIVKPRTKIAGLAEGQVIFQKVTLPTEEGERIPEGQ

Source: ChEMBL document CHEMBL3988442, “University of Dundee, Small-Polar-MMV Screening Library” (2021).

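Primary screen of methionyl-tRNA synthetase; the read-out is not stated. Target: Methionyl-tRNA synthetase (putative), Leishmania donovani (UniProt E9BF75). The test concentration is not given. Values are per cent inhibition. Size under these conditions: about 68,000 compounds, about 24 of them at 50% or above in at least one test.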

All values are in %. The record does not define 0% and 100%; most values in the screen are far below 50% and negative numbers occur (in some assays of this library far below -100). This is an unselected part of the compounds tested.

For CCS(=O)(=O)N1C[C@H]2CN(CC3CC3)C(=O)[C@H]2C1 the result was 13.66%. For COCC(=O)NC[C@H]1OC[C@@H](NC2CCC(F)(F)CC2)[C@@H]1O the result was 5.763%. COCCN1CCCC12CCN(C(=O)CC1CCCC1)CC2 gave 17.85%. c1csc(CN2CC(c3nc(-c4cnccn4)no3)C2)c1 gave 12.95%. With Cc1cnn(CC(C)NCc2ccncc2)c1 (stereo not shown) the screen gave 16.33%.

With Cn1cc(CNc2ccc(F)c(N3CCCS3(=O)=O)c2)cn1 the screen gave 15.86%. Result for O=C(Nc1ccccc1)N1CC(C(=O)N2CCCC2)C2(CCOCC2)C1 (stereo not shown) was 2.667%. O=C(C1CCC1)N1CCC2(CC1)OCCO2 gave 4.225%. CN(C)CCn1c([C@@H]2CCCO2)cc2cccnc21 gave 14.06%. Cc1noc(-c2ccc(N(C)Cc3ccncc3C)nc2)n1 gave 16.72%.

Result for Cc1cccc(N2CCN(CCNC(=O)c3ccnn3C)CC2)c1 was 12.38%. With Cc1nnc(N2CCOC(C)C2)c(C#N)c1C (stereo not shown) the screen gave 9.836%. CCSc1ccc(C(=O)N2CCC3(CCC(=O)N(C)C3)CC2)s1 read 15.4%. CN(C)S(=O)(=O)c1cccc(NC(=O)Cc2ccon2)c1 gave 6.272%. Cc1cc(C)nc(NC(=O)C(C)Oc2ccc3c(c2)OCO3)n1 (stereo not shown) read 7.874%.

With CCCNC(=O)CCc1ccnc2ccccc12 the screen gave 7.796%. Result for c1cnc(N2CCCC3(COCCN(CC4CC4)C3)C2)nc1 (stereo not shown) was 11.85%. For COc1ccc2[nH]c(=O)c(CN(C)C(C)c3ccccn3)cc2c1 (stereo not shown) the result was 0%. With c1cnc(Nc2ccc(C3CCCCN3Cc3ccncc3)cn2)nc1 (stereo not shown) the screen gave 10.47%. With COCCN1C(=O)[C@H]2CC[C@@H]1CN(C(=O)Cc1ccc(O)c(Cl)c1)C2 the screen gave 3.484%.

CC(C)(CNC(=O)COc1cccc(F)c1)C(N)=O gave 14.21%. For O=C(NC1CCCN(c2ccc(OC(F)F)cc2)C1)c1cnc[nH]1 (stereo not shown) the result was 15.96%. Result for CC(=O)N1CCc2c(nc(N(C)C)nc2N(C)CCO)C1 was 9.025%. For COc1ccsc1C(=O)Nc1cc(Cl)c(=O)n(C)c1 the result was 7.971%. With Cc1noc(C)c1CC(=O)OCC(=O)N1CCc2sccc2C1 the screen gave 11.89%.

With CC(C)c1nccc(C2(c3ccccc3Cl)CCNCC2)n1 the screen gave 12.26%. Cc1nonc1CN(C)CC1(O)CCCN(CCC2CCCCC2)C1=O (stereo not shown) read 12.68%. OC1(CN2CCCC2)CCCN(Cc2c[nH]c(CC3CCCC3)n2)C1 (stereo not shown) gave 15.25%. Result for Cc1cnn(CC2CN(CC(=O)Nc3nncs3)CCO2)c1 (stereo not shown) was 24.74%. With CCc1[nH]c2c(CNC(=O)C3CCN(C)C3)cc(C)cc2c1C (stereo not shown) the screen gave 11.06%.

For CCSc1ccc(C(C)NC(=O)CNS(C)(=O)=O)cc1 (stereo not shown) the result was 7.459%. OC1(CN2CCOC(Cn3cncn3)C2)CCCCC1 (stereo not shown) read 5.943%. For CN(CCSc1ccccc1)C(=O)c1cn2c(n1)CNCC2 the result was 10.68%. Result for O=C(NCCC1=CCCCC1)c1cc(-c2ccc(O)cc2)n[nH]1 was -2.997%. For Cc1ncc2c(n1)CN(CCOc1ccc3c(c1)CCC(=O)N3)CC2 the result was 5.108%.

CCn1cc(S(=O)(=O)Nc2cccnc2-n2cccn2)nc1C read -5.514%. For Cc1nn(C)c(N2CCOCC2)c1CNCC1CCN(C2CC2)C1 (stereo not shown) the result was 5.575%. Result for Cc1noc(C)c1CN1CCN(C(=O)CCn2cncn2)CC1 was 10.11%. Cn1cc(CNC2CCc3c(ccc(=O)n3Cc3cccnc3)C2)cn1 (stereo not shown) read 13.49%. Result for CN(C)Cc1nnc(C2CCCN(Cc3ccc(Cl)s3)C2)n1C (stereo not shown) was 20.07%.

With CC(C)c1cc(C(=O)N(C)C(C)c2nccs2)no1 (stereo not shown) the screen gave 10.56%. Result for O=C([C@H]1CCCO1)N1CCc2ncc(CN3CCOCC3)n2CC1 was 5.473%. With CCS(=O)(=O)NCCCNCc1c(C)nn(C)c1N(C)C the screen gave 10.72%. COc1cc(CN2CCC(O)(c3ccc(C)cn3)CC2)cc(Cl)c1OC read -3.093%. Cc1nc(CN2CCC3(CC2)CCN(C(=O)c2cscn2)C3)cs1 read 17.58%.

Result for COc1ccc(C(=O)C2CCCN(c3cc(C#N)ccn3)C2)cc1F (stereo not shown) was 18.12%. With O=C(C1CN(CC2CC2)CC12CCOCC2)N1CCCC1 (stereo not shown) the screen gave 7.769%. For COc1cc2nc(C)n(CC(=O)NCCC(C)C)c(=O)c2cc1OC the result was 9.483%. Result for COc1ccc(-c2ccccc2CCN)c(OC)c1OC was 14.09%. With CSCC[C@H](N)C(=O)NCc1cc2n(n1)CCCN(C1CCCCC1)C2 the screen gave 12.39%.

The last 4 entries again:

| SMILES | inhibition |
|---|---|
| `O=C(C1CN(CC2CC2)CC12CCOCC2)N1CCCC1` (stereo not shown) | 7.769% |
| `COc1cc2nc(C)n(CC(=O)NCCC(C)C)c(=O)c2cc1OC` | 9.483% |
| `COc1ccc(-c2ccccc2CCN)c(OC)c1OC` | 14.09% |
| `CSCC[C@H](N)C(=O)NCc1cc2n(n1)CCCN(C1CCCCC1)C2` | 12.39% |